Measured values as given in publication PMC4521966.

Target: T1, C-terminal FLAG-tagged mouse WDR72 (WD repeat-containing protein 72) (mouse) (UniProt D3YYM4)
T1 sequence: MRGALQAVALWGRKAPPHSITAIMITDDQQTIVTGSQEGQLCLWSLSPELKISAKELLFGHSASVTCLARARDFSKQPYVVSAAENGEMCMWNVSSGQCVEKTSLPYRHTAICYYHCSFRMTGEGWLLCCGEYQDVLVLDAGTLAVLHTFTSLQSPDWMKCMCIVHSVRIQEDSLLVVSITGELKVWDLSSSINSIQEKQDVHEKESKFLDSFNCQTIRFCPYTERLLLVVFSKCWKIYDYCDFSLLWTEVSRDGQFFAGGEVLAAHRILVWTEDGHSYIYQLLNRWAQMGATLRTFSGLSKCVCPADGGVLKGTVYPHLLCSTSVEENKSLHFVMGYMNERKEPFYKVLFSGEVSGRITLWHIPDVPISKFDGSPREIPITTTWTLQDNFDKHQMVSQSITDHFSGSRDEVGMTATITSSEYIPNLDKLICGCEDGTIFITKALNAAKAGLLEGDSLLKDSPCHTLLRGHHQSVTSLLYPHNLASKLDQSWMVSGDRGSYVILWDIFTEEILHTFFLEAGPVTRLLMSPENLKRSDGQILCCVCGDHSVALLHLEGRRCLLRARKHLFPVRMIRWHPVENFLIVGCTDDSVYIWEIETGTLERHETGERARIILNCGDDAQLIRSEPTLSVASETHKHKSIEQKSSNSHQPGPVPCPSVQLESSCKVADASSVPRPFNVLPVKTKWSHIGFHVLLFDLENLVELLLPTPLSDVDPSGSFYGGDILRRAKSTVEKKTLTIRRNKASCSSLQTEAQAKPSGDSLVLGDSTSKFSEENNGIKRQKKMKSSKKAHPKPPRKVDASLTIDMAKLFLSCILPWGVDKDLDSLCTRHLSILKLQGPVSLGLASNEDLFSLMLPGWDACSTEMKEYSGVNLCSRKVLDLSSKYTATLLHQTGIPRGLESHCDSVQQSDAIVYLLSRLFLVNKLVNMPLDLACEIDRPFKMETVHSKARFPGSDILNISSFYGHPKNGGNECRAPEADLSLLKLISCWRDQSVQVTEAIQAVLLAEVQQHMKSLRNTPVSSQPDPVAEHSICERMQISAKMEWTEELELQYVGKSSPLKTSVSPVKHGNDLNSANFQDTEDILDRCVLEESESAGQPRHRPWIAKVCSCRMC
Experiment: affinity purification with mass spectrometry; C-terminal FLAG-tagged mouse WDR72 overexpressed in HEK293; NP40 lysate; anti-FLAG antibody on protein A Dynabeads, 30 min at room temperature, washed twice; six CBB-stained bands cut from the SDS-PAGE gel, trypsin, LC-MS/MS

- binding: binds
B1: XRN2 (protein, UniProt Q9H0D6 1-950)
chain: MGVPAFFRWLSRKYPSIIVNCVEEKPKECNGVKIPVDASKPNPNDVEFDNLYLDMNGIIHPCTHPEDKPAPKNEDEMMVAIFEYIDRLFSIVRPRRLLYMAIDGVAPRAKMNQQRSRRFRASKEGMEAAVEKQRVREEILAKGGFLPPEEIKERFDSNCITPGTEFMDNLAKCLRYYIADRLNNDPGWKNLTVILSDASAPGEGEHKIMDYIRRQRAQPNHDPNTHHCLCGADADLIMLGLATHEPNFTIIREEFKPNKPKPCGLCNQFGHEVKDCEGLPREKKGKHDELADSLPCAEGEFIFLRLNVLREYLERELTMASLPFTFDVERSIDDWVFMCFFVGNDFLPHLPSLEIRENAIDRLVNIYKNVVHKTGGYLTESGYVNLQRVQMIMLAVGEVEDSIFKKRKDDEDSFRRRQKEKRKRMKRDQPAFTPSGILTPHALGSRNSPGSQVASNPRQAAYEMRMQNNSSPSISPNTSFTSDGSPSPLGGIKRKAEDSDSEPEPEDNVRLWEAGWKQRYYKNKFDVDAADEKFRRKVVQSYVEGLCWVLRYYYQGCASWKWYYPFHYAPFASDFEGIADMPSDFEKGTKPFKPLEQLMGVFPAASGNFLPPSWRKLMSDPDSSIIDFYPEDFAIDLNGKKYAWQGVALLPFVDERRLRAALEEVYPDLTPEETRRNSLGGDVLFVGKHHPLHDFILELYQTGSTEPVEVPPELCHGIQGKFSLDEEAILPDQIVCSPVPMLRDLTQNTVVSINFKDPQFAEDYIFKAVMLPGARKPAAVLKPSDWEKSSNGRQWKPQLGFNRDRRPVHLDQAAFRTLGHVMPRGSGTGIYSNAAPPPVTYQGNLYRPLLRGQAQIPKLMSNMRPQDSWRGPPPLFQQQRFDRGVGAEPLLPWNRMLQTQNAAFQPNQYQMLAGPGGYPPRRDDRGGRQGYPREGRKYPLPPPSGRYNWN

These are yes or no findings as the source states them, for the method shown. In cells and extracts the contact can be indirect. A yes stands for co-enrichment or nearness to the bait. Other partners may have been found. Sequences can lack the tags named with a protein.
